Measured values: the supplement of paper PMC6078165

Test system: MDAMB436
Test: relative JC-1 red fluorescence (viability) vs pre-drug, coculture with fibroblast (fraction); higher = more viable cancer cells
Description: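 JC-1 labelled TNBC cells cocultured 1:1 (1,500 cells each) with CellTrace Violet stained primary or stromal fibroblasts in 384-well plates in FluoroBrite medium, treated with one of 42 anticancer drugs at 0.1, 1, 10 or 100 uM. JC-1 red fluorescence (mitochondrial integrity in cancer cells only) was read by plate reader every 8 h for 72 h. Values are normalised to each well's pre-drug value. The stock of one drug was tenfold lower, so its dose labels may be too high.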

O=C1c2c(O)ccc(O)c2C(=O)c2c(NCCNCCO)ccc(NCCNCCO)c21 [Mitoxantrone]
relative JC-1 red fluorescence
Settings | 8 h | 16 h | 24 h | 32 h | 40 h | 48 h | 56 h | 64 h | 72 h
0.1 µM, coculture fibroblast: C12385 | 0.77771 | 0.6896 | 0.65 | 0.587 | 0.546 | 0.529 | 0.514 | 0.501 | 0.494
0.1 µM, coculture fibroblast: H6013 | 0.8145 | 0.7653 | 0.74 | 0.737 | 0.716 | 0.731 | 0.703 | 0.683 | 0.647
0.1 µM, coculture fibroblast: H6019 | 0.736 | 0.636 | 0.631 | 0.576 | 0.543 | 0.525 | 0.496 | 0.476 | 0.455
0.1 µM, coculture fibroblast: H6076 | 0.743 | 0.6383 | 0.637 | 0.617 | 0.61 | 0.592 | 0.601 | 0.613 | 0.616
0.1 µM, coculture fibroblast: H6231 | 0.748 | 0.677 | 0.667 | 0.615 | 0.605 | 0.583 | 0.56 | 0.537 | 0.516
0.1 µM, coculture fibroblast: HADF | 0.791 | 0.738 | 0.744 | 0.753 | 0.758 | 0.788 | 0.754 | 0.756 | 0.72
0.1 µM, coculture fibroblast: HCFa | 0.7394 | 0.6496 | 0.6317 | 0.616 | 0.6 | 0.61 | 0.558 | 0.539 | 0.493
0.1 µM, coculture fibroblast: HCPF | 0.791 | 0.725 | 0.68684 | 0.645 | 0.625 | 0.593 | 0.564 | 0.549 | 0.524
0.1 µM, coculture fibroblast: HHSteC | 0.843 | 0.834 | 0.796 | 0.793 | 0.783 | 0.803 | 0.745 | 0.729 | 0.668
0.1 µM, coculture fibroblast: HMF | 0.7604 | 0.6627 | 0.613 | 0.5805 | 0.5657 | 0.5384 | 0.53 | 0.516 | 0.509
0.1 µM, coculture fibroblast: HPFa | 0.8048 | 0.733 | 0.7064 | 0.669 | 0.6512 | 0.664 | 0.595 | 0.568 | 0.516
0.1 µM, coculture fibroblast: HUF | 0.82 | 0.723 | 0.71 | 0.651 | 0.609 | 0.58 | 0.566 | 0.558 | 0.548
0.1 µM, coculture fibroblast: Hs5 | 0.767 | 0.71662 | 0.696 | 0.651 | 0.649 | 0.611 | 0.624 | 0.599 | 0.596
0.1 µM, coculture fibroblast: Hs27A | 0.749 | 0.669 | 0.654 | 0.6535 | 0.636 | 0.67094 | 0.63 | 0.625 | 0.5769
0.1 µM, coculture fibroblast: Hs343T | 0.775 | 0.685 | 0.656 | 0.631 | 0.611 | 0.577 | 0.564 | 0.546 | 0.529
0.1 µM, coculture fibroblast: WS1 | 0.771 | 0.675 | 0.652 | 0.589 | 0.559 | 0.552 | 0.534 | 0.517 | 0.506
1 µM, coculture fibroblast: C12385 | 0.598 | 0.596 | 0.6214 | 0.5723 | 0.5623 | – | – | – | –
1 µM, coculture fibroblast: H6013 | 0.615 | 0.6327 | 0.6238 | 0.6359 | 0.649 | – | – | – | –
1 µM, coculture fibroblast: H6019 | 0.618 | 0.597 | 0.629 | 0.597 | 0.59 | – | – | – | –
1 µM, coculture fibroblast: H6076 | 0.689 | 0.647 | 0.676 | 0.647 | 0.634 | – | – | – | –
1 µM, coculture fibroblast: H6231 | 0.743 | 0.648 | 0.71209 | 0.6522 | 0.641 | – | – | – | –
1 µM, coculture fibroblast: HADF | 0.607 | 0.633 | 0.639 | 0.646 | 0.674 | – | – | – | –
1 µM, coculture fibroblast: HCFa | 0.63 | 0.635 | 0.637 | 0.646 | 0.659 | – | – | – | –
1 µM, coculture fibroblast: HCPF | 0.666 | 0.634 | 0.676 | 0.6318 | 0.631 | – | – | – | –
1 µM, coculture fibroblast: HHSteC | 0.681 | 0.697 | 0.703 | 0.703 | – | – | – | – | –
1 µM, coculture fibroblast: HMF | 0.737 | 0.632 | 0.632 | 0.603 | – | – | – | – | –
1 µM, coculture fibroblast: HPFa | 0.693 | 0.63 | 0.622 | 0.617 | – | – | – | – | –
1 µM, coculture fibroblast: HUF | 0.693 | 0.635 | 0.648 | 0.617 | – | – | – | – | –
1 µM, coculture fibroblast: Hs5 | 0.694 | 0.6851 | 0.718 | 0.686 | – | – | – | – | –
1 µM, coculture fibroblast: Hs27A | 0.631 | 0.628 | 0.676 | 0.693 | – | – | – | – | –
1 µM, coculture fibroblast: Hs343T | 0.701 | 0.626 | 0.654 | 0.631 | – | – | – | – | –
1 µM, coculture fibroblast: WS1 | 0.601 | 0.574 | 0.592 | 0.552 | – | – | – | – | –

Values are relative to the signal before dosing, not to a vehicle control; the signal also falls without drug.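 Labels refer to human fibroblasts, largely primary: uterine (C12385, HUF), lung (H6013), bone (Hs27A), adrenal (HADF), skin (WS1), plus mammary HMF and breast cancer-associated Hs343T. Cancer lines are basal-like or mesenchymal-like triple-negative breast cancer. The paper counts as hits responses shifting over 3x the replicate standard deviation. The tissue of the other fibroblasts is not given here.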
